Test results reported in PMC4627807, “Klotho Regulates 14-3-3ζ Monomerization and Binding to the ASK1 Signaling Complex in Response to Oxidative Stress” (PLoS ONE, 2015).
Results are given in words; binding and its absence hold for the method and conditions named. Binding seen in cells or lysates may run through a third protein. Some results given as binding are weak or reduced against the parent protein; the word gives no strength. One block for each molecule: values may come before it.

Chains of the proteins cited; added tags and fusions are not shown.
UniProt Q99683: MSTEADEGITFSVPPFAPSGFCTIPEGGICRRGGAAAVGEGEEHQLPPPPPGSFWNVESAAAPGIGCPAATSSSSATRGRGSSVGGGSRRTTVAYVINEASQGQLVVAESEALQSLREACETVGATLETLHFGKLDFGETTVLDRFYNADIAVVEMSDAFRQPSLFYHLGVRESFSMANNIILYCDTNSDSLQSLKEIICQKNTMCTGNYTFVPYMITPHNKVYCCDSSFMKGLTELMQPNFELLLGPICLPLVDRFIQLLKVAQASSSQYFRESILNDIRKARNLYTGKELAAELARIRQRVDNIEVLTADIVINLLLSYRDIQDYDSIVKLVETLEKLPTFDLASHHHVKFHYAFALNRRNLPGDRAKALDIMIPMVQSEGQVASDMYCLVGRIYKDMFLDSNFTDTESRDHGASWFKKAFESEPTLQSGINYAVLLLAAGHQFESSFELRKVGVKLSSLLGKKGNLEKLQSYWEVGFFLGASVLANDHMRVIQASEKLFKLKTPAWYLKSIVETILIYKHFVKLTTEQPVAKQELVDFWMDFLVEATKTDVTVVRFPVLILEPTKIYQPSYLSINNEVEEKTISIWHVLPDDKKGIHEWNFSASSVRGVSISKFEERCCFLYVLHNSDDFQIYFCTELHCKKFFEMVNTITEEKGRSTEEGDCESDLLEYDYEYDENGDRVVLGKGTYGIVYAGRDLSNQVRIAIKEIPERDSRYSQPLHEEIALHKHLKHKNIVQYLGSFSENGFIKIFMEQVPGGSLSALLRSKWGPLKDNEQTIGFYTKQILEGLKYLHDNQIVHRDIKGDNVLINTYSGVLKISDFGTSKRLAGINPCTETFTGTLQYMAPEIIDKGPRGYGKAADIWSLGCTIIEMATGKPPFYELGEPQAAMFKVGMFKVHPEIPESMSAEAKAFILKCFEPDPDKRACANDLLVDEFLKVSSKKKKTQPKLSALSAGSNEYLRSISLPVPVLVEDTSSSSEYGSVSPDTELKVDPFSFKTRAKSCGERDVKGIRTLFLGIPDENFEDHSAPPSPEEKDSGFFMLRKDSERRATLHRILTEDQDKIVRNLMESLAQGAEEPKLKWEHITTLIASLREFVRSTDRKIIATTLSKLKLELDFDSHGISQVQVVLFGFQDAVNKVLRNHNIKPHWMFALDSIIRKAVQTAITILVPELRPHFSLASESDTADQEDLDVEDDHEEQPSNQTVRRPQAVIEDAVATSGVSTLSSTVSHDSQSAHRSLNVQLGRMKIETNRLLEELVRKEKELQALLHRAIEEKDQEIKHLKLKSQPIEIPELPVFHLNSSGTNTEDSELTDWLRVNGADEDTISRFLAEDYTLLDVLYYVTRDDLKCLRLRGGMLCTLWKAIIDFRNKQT
UniProt P63104: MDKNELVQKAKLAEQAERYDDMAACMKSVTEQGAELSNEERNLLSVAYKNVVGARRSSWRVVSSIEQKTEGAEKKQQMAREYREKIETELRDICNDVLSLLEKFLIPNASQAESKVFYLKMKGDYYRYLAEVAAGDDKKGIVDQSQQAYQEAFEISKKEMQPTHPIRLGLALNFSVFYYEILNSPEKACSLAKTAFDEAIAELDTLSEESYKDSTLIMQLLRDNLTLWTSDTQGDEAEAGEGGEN

Experiments:
[1] = biological target: apoptosis signal-regulating kinase 1 (ASK1) (human (endogenous in HEK 293)) (UniProt Q99683); assay: co-IP + other: immuno-capillary electrophoresis (iCE); complex co-precipitated with ASK1 antibody from HEK 293 lysate, eluted and separated by native pI (NanoPro CB1000), probed with antibodies to Trx, ASK1 and 14-3-3ζ; buffer-treated cells and cells pretreated with 200 pM Klotho before ROT
[2] = biological target: apoptosis signal-regulating kinase 1 (ASK1) (human (endogenous in HEK 293)) (UniProt Q99683); assay: co-IP + other: immuno-capillary electrophoresis (iCE); as a4, but cells treated with 5 μM ROT alone
[3] = biological target: GST-tagged 14-3-3ζ wild type (Wt) (UniProt P63104); assay: pull-down; lysates of HEK 293 cells transfected with GST-14-3-3ζ Wt or Dm adsorbed onto glutathione sepharose, binding buffer 20 mM Tris-Cl pH 7.5, 2 mM EDTA, 1 mM EGTA, 80 mM NaCl; endogenous Trx by Western blot; cells treated with buffer or secreted Klotho for 40 min
[4] = biological target: 14-3-3ζ (human (endogenous in HEK 293)) (UniProt P63104); assay: co-IP + other: immuno-capillary electrophoresis (iCE); as a4, but cells treated with 5 μM ROT alone

binding [1]: binds
Molecule: 14-3-3ζ (from UniProt P63104 1-245)
binding [2]: no binding (condition: cells treated with 5 μM ROT)

binding [3]: binds | binding [4]: binds
B1: thioredoxin (Trx) (natural protein, human (endogenous in HEK 293), UniProt P10599 1-105, looked up)
chain: MVKQIESKTAFQEALDAAGDKLVVVDFSATWCGPCKMIKPFFHSLSEKYSNVIFLEVDVDDCQDVASECEVKCMPTFQFFKKGQKVGEFSGANKEKLEATINELV
notes: thioredoxin (Trx), endogenous in HEK 293 cells; active site cysteines named as Cys32/35; Detected by Western blot or iCE with a Trx antibody; source: endogenous, HEK 293 lysate
